Laboratory results published in paper PMC12591160, “Polyadenylation Complex CFII Recognizes Downstream Cis‐element for Pre‐mRNA Polyadenylation Through Interaction with an RNA‐Binding Protein in Arabidopsis”.
No constants are given. Whether binding was seen depends on the method and setting. Binding seen in cells or lysates may run through a third protein. Some binding calls cover weakened binding; strength is not graded here. Sequences can lack the tags named with a protein.

Target: T1, CLPS3-FLAG of CLPS3-FLAGres transgenic Arabidopsis plants (Arabidopsis thaliana) (UniProt Q9SR06)
T1 sequence: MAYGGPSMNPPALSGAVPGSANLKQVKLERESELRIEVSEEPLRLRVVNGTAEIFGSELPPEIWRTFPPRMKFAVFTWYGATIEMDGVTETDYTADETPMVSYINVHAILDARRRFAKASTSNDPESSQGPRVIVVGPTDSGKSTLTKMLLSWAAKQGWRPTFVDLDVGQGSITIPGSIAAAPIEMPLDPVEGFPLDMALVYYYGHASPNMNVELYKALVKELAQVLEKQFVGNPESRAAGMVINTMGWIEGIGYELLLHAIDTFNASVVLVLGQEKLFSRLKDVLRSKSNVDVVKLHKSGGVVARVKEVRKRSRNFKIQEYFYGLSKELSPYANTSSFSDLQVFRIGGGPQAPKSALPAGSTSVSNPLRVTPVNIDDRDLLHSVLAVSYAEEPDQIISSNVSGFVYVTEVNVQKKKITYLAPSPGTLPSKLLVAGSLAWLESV
Assay: co-IP; total protein extracts from PCFS4-MYCres or PCFS4-MYCres/CLPS3-FLAGres Arabidopsis plants; immunoprecipitated with M2 magnetic beads; blots with the indicated antibodies

binding: binds
B1: PCFS4-MYC of PCFS4-MYCres transgenic Arabidopsis plants (protein, UniProt Q0WPF2 1-808)
chain: MDSEKILNPRLVSINSTSRKGMSVELPQKPPPPPSLLDRFKALLNQREDEFGGGEEVLPPSMDEIVQLYEVVLGELTFNSKPIITDLTIIAGEQREHGEGIANAICTRILEAPVEQKLPSLYLLDSIVKNIGRDYGRYFSSRLPEVFCLAYRQAHPSLHPSMRHLFGTWSSVFPPPVLRKIDMQLQLSSAANQSSVGASEPSQPTRGIHVNPKYLRRLEPSAAENNLRGINSSARVYGQNSLGGYNDFEDQLESPSSLSSTPDGFTRRSNDGANPSNQAFNYGMGRATSRDDEHMEWRRKENLGQGNDHERPRALIDAYGVDTSKHVTINKPIRDMNGMHSKMVTPWQNTEEEEFDWEDMSPTLDRSRAGEFLRSSVPALGSVRARPRVGNTSDFHLDSDIKNGVSHQLRENWSLSQNYPHTSNRVDTRAGKDLKVLASSVGLVSSNSEFGAPPFDSIQDVNSRFGRALPDGTWPHLSARGPNSLPVPSAHLHHLANPGNAMSNRLQGKPLYRPENQVSQSHLNDMTQQNQMLVNYLPSSSAMAPRPMQSLLTHVSHGYPPHGSTIRPSLSIQGGEAMHPLSSGVLSQIGASNQPPGGAFSGLIGSLMAQGLISLNNQPAGQGPLGLEFDADMLKIRNESAISALYGDLPRQCTTCGLRFKCQEEHSKHMDWHVTKNRMSKNHKQNPSRKWFVSASMWLSGAEALGAEAVPGFLPTEPTTEKKDDEDMAVPADEDQTSCALCGEPFEDFYSDETEEWMYKGAVYMNAPEESTTDMDKSQLGPIVHAKCRPESNGGDMEEGSQRKKMRS
